In the supplement of paper PMC10849652:
The list shows a part of the results.

Chains of the proteins cited; added tags and fusions are not shown. Lines headed by an entry give the natural chain unless they say otherwise; changes in a name come on top.
UniProt Q13596, whole entry, looked up: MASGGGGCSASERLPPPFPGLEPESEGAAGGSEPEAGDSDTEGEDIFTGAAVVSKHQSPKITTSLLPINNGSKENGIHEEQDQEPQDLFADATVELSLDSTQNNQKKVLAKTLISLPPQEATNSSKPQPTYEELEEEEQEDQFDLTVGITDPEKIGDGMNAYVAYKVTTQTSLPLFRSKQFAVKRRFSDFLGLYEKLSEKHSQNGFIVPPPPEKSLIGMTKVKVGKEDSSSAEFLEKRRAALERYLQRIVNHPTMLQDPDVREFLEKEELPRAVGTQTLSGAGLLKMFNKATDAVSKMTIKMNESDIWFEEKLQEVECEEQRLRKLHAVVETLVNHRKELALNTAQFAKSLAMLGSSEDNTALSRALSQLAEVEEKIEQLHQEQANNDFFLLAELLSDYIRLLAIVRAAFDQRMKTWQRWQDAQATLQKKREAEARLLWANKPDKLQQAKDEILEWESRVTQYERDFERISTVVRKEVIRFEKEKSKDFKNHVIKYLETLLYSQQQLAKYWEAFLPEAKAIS
UniProt P57768: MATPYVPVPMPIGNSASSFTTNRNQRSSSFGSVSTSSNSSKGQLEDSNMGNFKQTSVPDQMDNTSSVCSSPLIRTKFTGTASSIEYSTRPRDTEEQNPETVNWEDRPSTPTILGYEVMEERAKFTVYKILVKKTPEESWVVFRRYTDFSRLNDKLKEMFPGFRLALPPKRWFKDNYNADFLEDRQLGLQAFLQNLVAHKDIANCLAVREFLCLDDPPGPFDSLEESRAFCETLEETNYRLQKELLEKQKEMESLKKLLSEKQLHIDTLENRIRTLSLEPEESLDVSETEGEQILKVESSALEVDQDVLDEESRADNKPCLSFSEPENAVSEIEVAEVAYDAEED
UniProt Q9H7B4: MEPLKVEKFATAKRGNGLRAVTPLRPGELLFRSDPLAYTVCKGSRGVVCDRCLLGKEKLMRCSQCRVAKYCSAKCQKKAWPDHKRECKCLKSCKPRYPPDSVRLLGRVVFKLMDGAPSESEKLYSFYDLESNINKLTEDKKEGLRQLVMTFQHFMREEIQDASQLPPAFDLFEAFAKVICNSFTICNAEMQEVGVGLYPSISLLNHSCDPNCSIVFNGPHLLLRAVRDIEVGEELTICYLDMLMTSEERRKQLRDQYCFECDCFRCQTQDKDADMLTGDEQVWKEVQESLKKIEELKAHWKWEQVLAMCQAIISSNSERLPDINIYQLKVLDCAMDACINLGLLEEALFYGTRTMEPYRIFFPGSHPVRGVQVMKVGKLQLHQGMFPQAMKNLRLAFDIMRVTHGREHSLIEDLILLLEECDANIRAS
UniProt O75940: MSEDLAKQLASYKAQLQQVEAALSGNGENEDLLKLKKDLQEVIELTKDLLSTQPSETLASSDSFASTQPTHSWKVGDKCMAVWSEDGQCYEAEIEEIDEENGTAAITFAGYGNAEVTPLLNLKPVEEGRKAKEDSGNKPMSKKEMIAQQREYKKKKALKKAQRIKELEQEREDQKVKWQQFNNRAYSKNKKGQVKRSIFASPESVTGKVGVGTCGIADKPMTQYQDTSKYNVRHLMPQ
UniProt P55769: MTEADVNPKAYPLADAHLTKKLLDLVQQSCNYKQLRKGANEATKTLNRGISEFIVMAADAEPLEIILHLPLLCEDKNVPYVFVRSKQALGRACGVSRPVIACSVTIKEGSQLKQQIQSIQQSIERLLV
UniProt Q9NWM0: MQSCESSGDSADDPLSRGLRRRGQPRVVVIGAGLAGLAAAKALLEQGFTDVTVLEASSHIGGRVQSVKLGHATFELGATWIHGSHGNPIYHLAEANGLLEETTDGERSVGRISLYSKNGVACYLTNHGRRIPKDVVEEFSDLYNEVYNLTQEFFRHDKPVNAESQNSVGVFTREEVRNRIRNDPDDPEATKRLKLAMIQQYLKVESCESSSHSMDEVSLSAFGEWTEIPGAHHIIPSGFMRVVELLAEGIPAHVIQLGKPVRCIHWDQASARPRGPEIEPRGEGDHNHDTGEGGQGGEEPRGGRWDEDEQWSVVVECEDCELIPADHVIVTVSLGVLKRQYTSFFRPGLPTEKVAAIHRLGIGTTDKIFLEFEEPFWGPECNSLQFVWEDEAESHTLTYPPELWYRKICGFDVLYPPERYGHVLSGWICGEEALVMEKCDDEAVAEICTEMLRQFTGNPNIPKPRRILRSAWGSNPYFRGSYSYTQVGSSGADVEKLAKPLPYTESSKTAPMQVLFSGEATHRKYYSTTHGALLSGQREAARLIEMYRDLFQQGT
UniProt P23497: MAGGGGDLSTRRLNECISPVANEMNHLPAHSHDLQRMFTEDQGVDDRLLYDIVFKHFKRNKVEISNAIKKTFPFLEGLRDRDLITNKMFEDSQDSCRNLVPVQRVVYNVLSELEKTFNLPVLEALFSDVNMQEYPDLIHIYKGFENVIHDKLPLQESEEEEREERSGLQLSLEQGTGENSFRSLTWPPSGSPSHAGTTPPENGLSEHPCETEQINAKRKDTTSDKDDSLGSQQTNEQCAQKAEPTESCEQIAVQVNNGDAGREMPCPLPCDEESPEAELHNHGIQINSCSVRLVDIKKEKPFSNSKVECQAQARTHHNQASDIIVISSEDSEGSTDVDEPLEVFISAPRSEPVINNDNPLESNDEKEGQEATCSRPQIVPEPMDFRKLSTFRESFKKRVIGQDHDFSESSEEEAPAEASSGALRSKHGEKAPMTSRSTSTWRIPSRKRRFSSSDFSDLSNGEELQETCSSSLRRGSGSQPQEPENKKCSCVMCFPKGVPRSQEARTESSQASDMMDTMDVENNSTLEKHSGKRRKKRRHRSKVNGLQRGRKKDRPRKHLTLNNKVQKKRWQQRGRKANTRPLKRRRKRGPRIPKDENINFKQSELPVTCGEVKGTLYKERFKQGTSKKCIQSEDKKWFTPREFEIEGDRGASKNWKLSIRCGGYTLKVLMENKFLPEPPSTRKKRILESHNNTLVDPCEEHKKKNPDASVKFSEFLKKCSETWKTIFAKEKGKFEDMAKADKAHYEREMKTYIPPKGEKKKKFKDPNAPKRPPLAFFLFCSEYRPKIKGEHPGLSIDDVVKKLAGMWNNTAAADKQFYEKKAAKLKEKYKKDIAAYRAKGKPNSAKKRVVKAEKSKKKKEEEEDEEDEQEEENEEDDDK
UniProt Q9Y5X2: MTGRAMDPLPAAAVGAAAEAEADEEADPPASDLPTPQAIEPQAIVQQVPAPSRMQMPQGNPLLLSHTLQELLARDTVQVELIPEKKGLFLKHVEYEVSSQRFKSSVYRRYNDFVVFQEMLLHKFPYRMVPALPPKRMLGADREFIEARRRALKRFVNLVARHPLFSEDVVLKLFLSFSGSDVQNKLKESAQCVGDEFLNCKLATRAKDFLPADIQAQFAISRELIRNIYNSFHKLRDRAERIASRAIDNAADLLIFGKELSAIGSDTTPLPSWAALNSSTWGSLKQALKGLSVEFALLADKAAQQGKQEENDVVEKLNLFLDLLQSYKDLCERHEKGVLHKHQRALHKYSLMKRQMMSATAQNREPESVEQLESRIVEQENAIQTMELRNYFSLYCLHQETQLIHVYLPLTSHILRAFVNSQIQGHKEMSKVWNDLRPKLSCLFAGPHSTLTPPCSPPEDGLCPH
UniProt Q92922, whole entry, looked up: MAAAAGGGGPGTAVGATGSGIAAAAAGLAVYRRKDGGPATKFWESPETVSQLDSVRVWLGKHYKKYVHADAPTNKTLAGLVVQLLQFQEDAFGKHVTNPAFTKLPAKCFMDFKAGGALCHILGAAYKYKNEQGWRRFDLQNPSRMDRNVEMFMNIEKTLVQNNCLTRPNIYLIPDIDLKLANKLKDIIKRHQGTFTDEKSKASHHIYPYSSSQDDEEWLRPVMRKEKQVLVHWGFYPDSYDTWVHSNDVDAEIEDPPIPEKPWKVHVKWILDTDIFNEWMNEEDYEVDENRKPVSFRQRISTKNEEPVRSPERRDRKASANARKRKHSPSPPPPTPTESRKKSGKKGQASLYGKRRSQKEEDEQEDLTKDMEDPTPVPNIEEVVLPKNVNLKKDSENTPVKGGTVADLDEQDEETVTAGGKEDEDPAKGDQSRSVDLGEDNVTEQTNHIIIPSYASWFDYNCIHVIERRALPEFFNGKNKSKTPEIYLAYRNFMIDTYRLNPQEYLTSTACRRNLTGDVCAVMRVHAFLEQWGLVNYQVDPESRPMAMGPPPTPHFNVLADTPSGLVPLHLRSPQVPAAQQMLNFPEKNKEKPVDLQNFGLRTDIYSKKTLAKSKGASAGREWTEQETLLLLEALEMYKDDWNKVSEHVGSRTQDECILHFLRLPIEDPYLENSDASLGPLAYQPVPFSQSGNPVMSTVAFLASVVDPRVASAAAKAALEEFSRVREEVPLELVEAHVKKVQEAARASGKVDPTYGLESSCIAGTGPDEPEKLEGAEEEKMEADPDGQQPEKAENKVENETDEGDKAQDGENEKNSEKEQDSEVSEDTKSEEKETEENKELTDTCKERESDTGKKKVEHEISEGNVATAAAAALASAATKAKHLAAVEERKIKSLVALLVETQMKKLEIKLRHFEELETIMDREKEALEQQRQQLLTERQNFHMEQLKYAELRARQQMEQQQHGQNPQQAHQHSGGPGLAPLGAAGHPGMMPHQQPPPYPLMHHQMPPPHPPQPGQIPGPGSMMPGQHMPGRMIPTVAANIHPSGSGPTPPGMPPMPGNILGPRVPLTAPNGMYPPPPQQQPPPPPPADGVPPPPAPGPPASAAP
UniProt Q96RF0: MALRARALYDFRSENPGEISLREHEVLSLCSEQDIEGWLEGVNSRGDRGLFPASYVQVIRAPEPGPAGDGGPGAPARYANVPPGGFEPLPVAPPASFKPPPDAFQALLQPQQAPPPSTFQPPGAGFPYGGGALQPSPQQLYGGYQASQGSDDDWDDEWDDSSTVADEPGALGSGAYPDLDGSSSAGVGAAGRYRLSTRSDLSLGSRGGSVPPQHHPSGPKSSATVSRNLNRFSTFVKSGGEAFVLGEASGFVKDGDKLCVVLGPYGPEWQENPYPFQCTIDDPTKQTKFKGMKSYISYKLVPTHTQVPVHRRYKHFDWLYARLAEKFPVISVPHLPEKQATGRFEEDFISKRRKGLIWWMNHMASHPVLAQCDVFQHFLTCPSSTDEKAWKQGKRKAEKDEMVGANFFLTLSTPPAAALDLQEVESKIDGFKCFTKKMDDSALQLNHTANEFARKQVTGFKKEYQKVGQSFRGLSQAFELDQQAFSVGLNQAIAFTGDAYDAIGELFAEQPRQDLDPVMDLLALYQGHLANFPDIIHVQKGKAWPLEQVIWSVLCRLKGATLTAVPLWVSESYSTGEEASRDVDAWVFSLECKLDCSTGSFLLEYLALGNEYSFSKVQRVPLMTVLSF
UniProt O95149, whole entry, looked up: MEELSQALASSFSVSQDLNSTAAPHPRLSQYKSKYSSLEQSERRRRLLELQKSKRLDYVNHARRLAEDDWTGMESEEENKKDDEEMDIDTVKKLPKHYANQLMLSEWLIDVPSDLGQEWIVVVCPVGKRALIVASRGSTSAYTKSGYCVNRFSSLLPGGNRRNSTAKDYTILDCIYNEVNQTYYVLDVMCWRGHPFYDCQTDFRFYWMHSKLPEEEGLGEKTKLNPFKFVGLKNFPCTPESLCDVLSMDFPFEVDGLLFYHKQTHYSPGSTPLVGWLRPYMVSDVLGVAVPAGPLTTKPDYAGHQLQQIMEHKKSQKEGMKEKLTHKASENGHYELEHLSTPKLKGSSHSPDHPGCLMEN
UniProt O76070, whole entry, looked up: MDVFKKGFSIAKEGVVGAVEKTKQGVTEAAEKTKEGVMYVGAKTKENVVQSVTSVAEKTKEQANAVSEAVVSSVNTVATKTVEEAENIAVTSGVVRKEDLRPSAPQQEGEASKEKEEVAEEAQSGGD
UniProt O00161: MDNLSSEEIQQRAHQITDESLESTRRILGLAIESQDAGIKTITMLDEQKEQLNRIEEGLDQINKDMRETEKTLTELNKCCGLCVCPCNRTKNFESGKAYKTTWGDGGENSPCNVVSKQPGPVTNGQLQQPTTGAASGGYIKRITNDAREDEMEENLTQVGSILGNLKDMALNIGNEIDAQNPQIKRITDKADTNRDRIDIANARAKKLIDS
UniProt Q7Z3B0: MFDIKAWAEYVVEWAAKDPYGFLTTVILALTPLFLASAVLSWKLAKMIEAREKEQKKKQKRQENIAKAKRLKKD
UniProt Q13573: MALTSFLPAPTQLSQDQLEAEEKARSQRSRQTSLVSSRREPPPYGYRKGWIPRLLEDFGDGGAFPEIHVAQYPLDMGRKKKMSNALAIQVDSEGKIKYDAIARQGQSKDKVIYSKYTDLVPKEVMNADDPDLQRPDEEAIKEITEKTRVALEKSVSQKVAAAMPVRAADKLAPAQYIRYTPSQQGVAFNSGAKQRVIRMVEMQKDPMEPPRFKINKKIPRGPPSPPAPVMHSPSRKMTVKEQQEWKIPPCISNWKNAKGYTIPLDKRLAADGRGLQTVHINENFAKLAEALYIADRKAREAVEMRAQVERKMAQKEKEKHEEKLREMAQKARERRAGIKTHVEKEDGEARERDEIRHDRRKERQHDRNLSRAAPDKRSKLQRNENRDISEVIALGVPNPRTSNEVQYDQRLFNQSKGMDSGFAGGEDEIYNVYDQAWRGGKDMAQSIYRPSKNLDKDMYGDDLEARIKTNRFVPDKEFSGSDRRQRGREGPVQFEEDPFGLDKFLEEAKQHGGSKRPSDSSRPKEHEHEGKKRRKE

Assays:
Experiment in all cases: log2 fold change, soluble protein after heating vs DMSO (PISA); higher = thermal stabilisation; K562 lysate, 10 uM; active = over 0.2 and 3.5 SD of the protein, either way, in both replicates (recomputed)
erlotinib = compound: C#Cc1cccc(Nc2ncnc3cc(OCCOC)c(OCCOC)cc23)c1 [erlotinib]
How it was run: (§1)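 Pellets of K562 cells were dounce-homogenised in PBS pH 7.4 with 1 mM MgCl2, and the crude extract was held at 1 mg/mL protein for a 30 min treatment with 10 μM compound. Aliquots were heated for 3 min over 48°C-58°C and pooled before NP-40 was added to 0.5% at 4°C. The supernatant from 21,000xg for 90 min was quantified by TMTpro 16plex LC-MS/MS with channel sums equalised. Values are reported from duplicates as log-two fold change in thermal stability relative to solvent controls.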

[1] = compound: C/C(=N\NC(=O)C1=CC(=CC=C1)S(=O)(=O)N2CCOCC2)/C3=C(C=CC(=C3)Cl)O
How it was run: as §1

[2] = compound: C1=CC(=CC=C1C2=NC3=C(N2)C=C(C=C3)C(=O)N)OC4=CC=C(C=C4)Cl
How it was run: as §1

[3] = compound: C1=CC2=C(C=CC(=C2)/C=C\3/C(=O)NC(=NCC4=CC=CS4)S3)N=C1
How it was run: as §1

[4] = compound: C1=CC2=NC=CN=C2C=C1/C=C/3\C(=O)NC(=O)S3
How it was run: as §1

[5] = compound: C1=CC=C(C=C1)C2=NC(=C(N2)C3=CC=NC=C3)C4=CC(=C(C=C4)Cl)O
How it was run: as §1

[6] = compound: C1=CC=C2C(=C1)C3=NNC4=CC=CC(=C43)C2=O
How it was run: as §1

[7] = compound: C1CCN(C1)C(=O)NC2=CC=CC(=C2)NC3=NC=C(C(=N3)NCCC4=CN=CN4)Br
How it was run: as §1

[8] = compound: C1CN(CCC1(CC2=CC=C(C=C2)Cl)N)C3=NC=NC4=C3C=CN4
How it was run: as §1

IRAK-1-4 Inhibitor I = compound: C1COCCN1CCN2C3=CC=CC=C3N=C2NC(=O)C4=CC(=CC=C4)[N+](=O)[O-] [IRAK-1-4 Inhibitor I]
How it was run: as §1

Target | log2 fold change (erlotinib) | log2 fold change [1] | log2 fold change [2] | log2 fold change [3] | log2 fold change [4] | log2 fold change [5] | log2 fold change [6] | log2 fold change [7] | log2 fold change [8] | log2 fold change (IRAK-1-4 Inhibitor I)
SMUG1 (UniProt Q53HV7) | inactive: 0.035 | inactive: -0.025 | inactive: 0.152 | inactive: 0.062 | inactive: -0.03 | inactive: 0.007 | inactive: -0.119 | inactive: -0.036 | inactive: 0.028 | inactive: 0.015
SNRPD1 (UniProt P62314) | inactive: -0.01 | inactive: 0.031 | inactive: 0.007 | inactive: 0.001 | inactive: 0.033 | inactive: 0.005 | inactive: -0.024 | inactive: -0.004 | inactive: 0.009 | inactive: 0.065
SNX1 (UniProt Q13596) | inactive: -0.013 | inactive: 0.009 | inactive: -0.005 | inactive: -0.008 | inactive: -0.013 | inactive: -0.009 | inactive: -0.039 | inactive: -0.014 | inactive: 0.01 | inactive: 0.002
SNX16 (UniProt P57768) | inactive: 0.057 | inactive: 0.017 | inactive: 0.103 | inactive: 0.043 | inactive: 0.091 | inactive: 0.019 | inactive: 0.027 | inactive: -0.008 | inactive: 0.019 | inactive: 0.058
SMYD3 (UniProt Q9H7B4) | inactive: 0.094 | inactive: 0.104 | inactive: 0.009 | inactive: -0.036 | inactive: 0.064 | inactive: -0.021 | inactive: -0.036 | inactive: -0.022 | inactive: -0.038 | inactive: 0.001
SOX6 (UniProt P35712) | inactive: -0.034 | inactive: -0.112 | inactive: -0.183 | inactive: 0.209 | inactive: -0.139 | inactive: -0.046 | inactive: -0.227 | inactive: -0.071 | inactive: 0.071 | inactive: -0.006
SMNDC1 (UniProt O75940) | inactive: -0.004 | inactive: -0.008 | inactive: 0.005 | inactive: -0.002 | inactive: -0.021 | inactive: 0.035 | inactive: 0.025 | inactive: -0.04 | inactive: -0.036 | inactive: 0.003
SNU13 (UniProt P55769) | inactive: 0.033 | inactive: 0.068 | inactive: 0.013 | inactive: -0.051 | inactive: -0.031 | inactive: 0.02 | inactive: 0 | inactive: 0.013 | inactive: 0.031 | inactive: -0.009
SOS1 (UniProt Q07889) | inactive: 0.103 | inactive: 0.104 | inactive: 0.126 | inactive: -0.009 | inactive: -0.01 | inactive: -0.045 | inactive: -0.074 | inactive: -0.038 | inactive: -0.026 | inactive: 0.024
SMOX isoform 6 (UniProt Q9NWM0) | inactive: 0.118 |  | inactive: 0.024 |  |  |  |  |  |  | 
SP100 isoform 4 (UniProt P23497) | inactive: 0.006 | inactive: 0.016 | inactive: -0.006 | inactive: 0.015 | inactive: -0.011 | inactive: -0.022 | inactive: 0 | inactive: -0.013 | inactive: -0.014 | inactive: -0.057
SNRPN isoform 2 (UniProt P63162) | inactive: -0.008 | inactive: 0.047 | inactive: 0.109 | inactive: -0.025 |  |  | inactive: 0.108 | inactive: -0.154 | inactive: -0.038 | 
SNX9 (UniProt Q9Y5X1) | inactive: 0.018 | inactive: 0.026 | inactive: 0.021 | inactive: -0.012 | inactive: 0.01 | inactive: 0.027 | inactive: -0.024 | inactive: 0.004 | inactive: 0.006 | inactive: -0.008
SNX2 isoform 2 (UniProt O60749) | inactive: 0.132 | inactive: -0.065 | inactive: 0.059 | inactive: 0.04 | inactive: 0.01 | inactive: 0 | inactive: -0.114 | inactive: -0.108 | inactive: 0.245 | inactive: -0.043
SORD (UniProt Q00796) | inactive: 0.014 | inactive: 0.027 | inactive: 0.021 | inactive: -0.022 | inactive: -0.004 | inactive: 0.024 | inactive: 0.01 | inactive: 0.041 | inactive: 0.014 | inactive: 0.001
SNX8 (UniProt Q9Y5X2) | inactive: 0.024 | inactive: -0.063 | inactive: -0.044 | inactive: 0.033 | inactive: 0.009 | inactive: -0.008 | inactive: 0.024 | inactive: 0.057 | inactive: -0.003 | inactive: -0.005
SMARCD3 (UniProt Q6STE5) | inactive: -0.017 |  | inactive: 0.052 |  |  |  |  |  |  | 

Target | log2 fold change (erlotinib) | log2 fold change [1] | log2 fold change [2] | log2 fold change [3] | log2 fold change [4] | log2 fold change [5] | log2 fold change [6] | log2 fold change [7] | log2 fold change [8] | log2 fold change (IRAK-1-4 Inhibitor I)
SMARCC1 (UniProt Q92922) | inactive: 0.006 | inactive: -0.032 | inactive: 0.032 | inactive: 0.01 | inactive: -0.009 | inactive: 0.029 | inactive: -0.052 | inactive: -0.007 | inactive: 0.008 | inactive: -0.005
SON isoform 9 (UniProt P18583) | inactive: 0.028 | inactive: 0.104 | inactive: -0.054 | inactive: 0 | inactive: -0.066 | inactive: -0.022 | inactive: -0.028 | inactive: 0.023 | inactive: 0.005 | inactive: 0.031
SNX18 isoform 2 (UniProt Q96RF0) | inactive: 0.064 | inactive: 0.104 | inactive: -0.056 | inactive: -0.134 |  |  | inactive: 0.013 | inactive: -0.054 | inactive: -0.109 | 
SNUPN (UniProt O95149) | inactive: -0.048 | inactive: -0.116 | inactive: 0.3 | inactive: 0.024 | inactive: 0.035 | inactive: 0.069 | inactive: 0.009 | inactive: 0.02 | inactive: -0.039 | inactive: -0.001
SNTA1 (UniProt Q13424) | inactive: -0.027 | inactive: -0.072 | inactive: 0.04 | inactive: -0.042 | inactive: -0.017 | inactive: -0.011 | inactive: 0.034 | inactive: 0.013 | inactive: -0.008 | inactive: 0.038
SP6 (UniProt Q3SY56) | inactive: 0.034 | inactive: 0.05 | inactive: 0.033 | inactive: -0.104 |  | inactive: 0.023 | inactive: 0.073 | inactive: 0.05 | inactive: 0.071 | inactive: 0.069
SNCG (UniProt O76070) | inactive: -0.001 | inactive: -0.011 | inactive: 0.039 | inactive: 0.002 | inactive: -0.053 | inactive: -0.006 | inactive: 0.036 | inactive: -0.016 | inactive: 0.012 | inactive: 0
SNAP29 (UniProt O95721) | inactive: -0.047 | inactive: -0.058 | inactive: 0.027 | inactive: -0.04 | inactive: -0.007 | inactive: -0.022 | inactive: 0.036 | inactive: -0.029 | inactive: -0.018 | inactive: 0.009
SOX5 (UniProt P35711) | inactive: -0.169 | inactive: 0.08 | inactive: 0.025 | active: 0.38 | inactive: 0.131 | inactive: 0.059 | inactive: -0.239 | inactive: 0.028 | inactive: 0.154 | inactive: 0.044
SOX7 isoform 2 (UniProt Q9BT81) | inactive: -0.047 | inactive: -0.085 | inactive: 0.174 | inactive: -0.039 | inactive: -0.073 | inactive: 0.154 | inactive: 0.013 |  |  | inactive: -0.076
SOD2 (UniProt P04179) | inactive: 0.014 | inactive: 0.004 | inactive: 0.024 | inactive: -0.025 | inactive: -0.006 | inactive: -0.001 | inactive: 0.001 | inactive: 0.007 | inactive: 0.009 | inactive: 0.019
SMIM20 isoform 2 (UniProt Q8N5G0) | inactive: 0.165 | inactive: 0.071 | inactive: 0.009 | inactive: -0.06 | inactive: 0.043 |  | inactive: -0.015 |  |  | 
SNAP23 isoform 2 (UniProt O00161) | inactive: 0.042 | inactive: -0.019 | inactive: 0.27 | inactive: -0.006 |  | inactive: -0.071 | inactive: -0.117 | inactive: 0.104 | inactive: -0.08 | inactive: 0.057
SMIM15 (UniProt Q7Z3B0) | inactive: 0.003 | inactive: 0.118 | inactive: 0.008 | inactive: -0.089 |  | inactive: -0.067 | inactive: 0.055 | inactive: 0.016 | inactive: 0.024 | inactive: 0.181
SNX5 (UniProt Q9Y5X3) | inactive: -0.014 | inactive: 0.043 | inactive: -0.01 | inactive: -0.002 | inactive: -0.018 | inactive: 0.004 | inactive: -0.006 | inactive: -0.019 | inactive: -0.043 | inactive: -0.002
SNW1 (UniProt Q13573) | inactive: -0.038 | inactive: -0.017 | inactive: 0.026 | inactive: -0.018 | inactive: -0.033 | inactive: -0.006 | inactive: -0.004 | inactive: 0.022 | inactive: -0.021 | inactive: 0

Some of the entries so far, as a markdown table:

| Target | log2 fold change (erlotinib) | log2 fold change [1] | log2 fold change [2] | log2 fold change [3] | log2 fold change [4] | log2 fold change [5] | log2 fold change [6] | log2 fold change [7] | log2 fold change [8] | log2 fold change (IRAK-1-4 Inhibitor I) |
| --- | --- | --- | --- | --- | --- | --- | --- | --- | --- | --- |
| SOX5 (UniProt P35711) | inactive: -0.169 | inactive: 0.08 | inactive: 0.025 | active: 0.38 | inactive: 0.131 | inactive: 0.059 | inactive: -0.239 | inactive: 0.028 | inactive: 0.154 | inactive: 0.044 |
| SMIM15 (UniProt Q7Z3B0) | inactive: 0.003 | inactive: 0.118 | inactive: 0.008 | inactive: -0.089 |  | inactive: -0.067 | inactive: 0.055 | inactive: 0.016 | inactive: 0.024 | inactive: 0.181 |
